Experimental data: article PMC10060430

Protein sequences, listed by entry. Tags and fused reporters are not part of them.
UniProt P49588: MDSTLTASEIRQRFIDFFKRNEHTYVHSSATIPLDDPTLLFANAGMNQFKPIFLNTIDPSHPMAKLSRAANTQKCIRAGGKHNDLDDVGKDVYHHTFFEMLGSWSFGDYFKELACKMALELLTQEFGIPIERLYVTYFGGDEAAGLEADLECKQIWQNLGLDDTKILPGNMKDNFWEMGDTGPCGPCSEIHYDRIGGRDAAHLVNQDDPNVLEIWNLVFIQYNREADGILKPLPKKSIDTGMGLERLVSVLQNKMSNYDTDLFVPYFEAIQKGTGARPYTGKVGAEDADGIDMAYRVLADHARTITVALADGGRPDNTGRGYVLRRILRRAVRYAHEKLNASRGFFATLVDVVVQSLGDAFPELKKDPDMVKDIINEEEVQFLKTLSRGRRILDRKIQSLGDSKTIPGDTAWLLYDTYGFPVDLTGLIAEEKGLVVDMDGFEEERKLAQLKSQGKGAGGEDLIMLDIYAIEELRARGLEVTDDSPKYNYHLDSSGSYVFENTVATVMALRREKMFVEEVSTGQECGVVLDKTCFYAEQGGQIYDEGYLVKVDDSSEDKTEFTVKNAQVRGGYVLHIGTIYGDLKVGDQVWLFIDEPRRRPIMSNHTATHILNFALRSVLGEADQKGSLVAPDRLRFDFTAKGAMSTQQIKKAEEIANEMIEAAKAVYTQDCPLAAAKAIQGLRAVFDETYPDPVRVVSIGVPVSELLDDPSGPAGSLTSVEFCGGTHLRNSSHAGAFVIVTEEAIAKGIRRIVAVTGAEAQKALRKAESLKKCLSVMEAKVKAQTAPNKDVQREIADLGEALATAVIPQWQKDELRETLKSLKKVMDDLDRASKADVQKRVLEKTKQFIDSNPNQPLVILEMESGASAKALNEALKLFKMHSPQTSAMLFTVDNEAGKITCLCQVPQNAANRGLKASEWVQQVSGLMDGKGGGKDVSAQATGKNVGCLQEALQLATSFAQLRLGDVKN
UniProt P09874: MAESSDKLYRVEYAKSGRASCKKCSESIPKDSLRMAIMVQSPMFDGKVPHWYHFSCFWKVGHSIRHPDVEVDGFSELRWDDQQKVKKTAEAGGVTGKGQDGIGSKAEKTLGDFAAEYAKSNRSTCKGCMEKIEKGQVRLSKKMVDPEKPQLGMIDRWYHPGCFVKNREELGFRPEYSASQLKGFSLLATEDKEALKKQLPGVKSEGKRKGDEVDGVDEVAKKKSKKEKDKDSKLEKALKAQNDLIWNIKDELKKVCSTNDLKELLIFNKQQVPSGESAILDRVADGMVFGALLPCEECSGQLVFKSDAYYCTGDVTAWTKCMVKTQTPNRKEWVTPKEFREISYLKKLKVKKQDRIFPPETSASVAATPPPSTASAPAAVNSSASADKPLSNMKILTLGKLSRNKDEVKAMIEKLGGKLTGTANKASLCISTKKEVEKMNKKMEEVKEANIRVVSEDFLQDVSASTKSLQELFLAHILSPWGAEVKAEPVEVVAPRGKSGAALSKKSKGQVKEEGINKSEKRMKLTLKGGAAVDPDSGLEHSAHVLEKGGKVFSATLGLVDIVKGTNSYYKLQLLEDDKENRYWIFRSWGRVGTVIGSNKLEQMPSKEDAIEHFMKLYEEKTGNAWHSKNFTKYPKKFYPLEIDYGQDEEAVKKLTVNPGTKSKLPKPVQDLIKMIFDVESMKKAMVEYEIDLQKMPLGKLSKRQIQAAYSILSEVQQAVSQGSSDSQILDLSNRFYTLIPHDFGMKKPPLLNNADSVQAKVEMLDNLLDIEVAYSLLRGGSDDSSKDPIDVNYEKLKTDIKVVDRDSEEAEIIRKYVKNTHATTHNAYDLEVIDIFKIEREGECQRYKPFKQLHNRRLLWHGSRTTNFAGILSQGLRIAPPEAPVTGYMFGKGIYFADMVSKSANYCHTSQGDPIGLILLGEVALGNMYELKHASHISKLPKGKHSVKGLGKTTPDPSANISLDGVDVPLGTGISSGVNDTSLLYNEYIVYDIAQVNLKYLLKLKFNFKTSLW

Molecular target: AARS1-Flag (alanyl-tRNA synthetase) (human) (UniProt P49588)
Experiment: affinity purification with mass spectrometry; AARS1-Flag expressed in Hutu80 cells; lysis in 0.5% NP-40 buffer; anti-FLAG M2 magnetic beads 3 h at 4 °C; on-bead tryptic digestion, LC-MS/MS (called tandem affinity purification in the results)

## PARP1 (poly-ADP-ribose polymerase 1), endogenous in Hutu80 cells (from UniProt P09874 1-1014) (enzyme)
  binding: binds

Results are given in words; binding and its absence hold for the method and conditions named. In cells and extracts the contact can be indirect. A yes stands for co-enrichment or nearness to the bait. Other partners may have been found.
